Results reported in article PMC7652922.
These are yes or no findings as the source states them, for the method shown. Binding seen in cells or lysates may run through a third protein. Binding can be weak; no strength is given.

Target: T1, endothelial nitric oxide synthase (bovine (endogenous in BAECs)) (UniProt P29473)
T1 sequence: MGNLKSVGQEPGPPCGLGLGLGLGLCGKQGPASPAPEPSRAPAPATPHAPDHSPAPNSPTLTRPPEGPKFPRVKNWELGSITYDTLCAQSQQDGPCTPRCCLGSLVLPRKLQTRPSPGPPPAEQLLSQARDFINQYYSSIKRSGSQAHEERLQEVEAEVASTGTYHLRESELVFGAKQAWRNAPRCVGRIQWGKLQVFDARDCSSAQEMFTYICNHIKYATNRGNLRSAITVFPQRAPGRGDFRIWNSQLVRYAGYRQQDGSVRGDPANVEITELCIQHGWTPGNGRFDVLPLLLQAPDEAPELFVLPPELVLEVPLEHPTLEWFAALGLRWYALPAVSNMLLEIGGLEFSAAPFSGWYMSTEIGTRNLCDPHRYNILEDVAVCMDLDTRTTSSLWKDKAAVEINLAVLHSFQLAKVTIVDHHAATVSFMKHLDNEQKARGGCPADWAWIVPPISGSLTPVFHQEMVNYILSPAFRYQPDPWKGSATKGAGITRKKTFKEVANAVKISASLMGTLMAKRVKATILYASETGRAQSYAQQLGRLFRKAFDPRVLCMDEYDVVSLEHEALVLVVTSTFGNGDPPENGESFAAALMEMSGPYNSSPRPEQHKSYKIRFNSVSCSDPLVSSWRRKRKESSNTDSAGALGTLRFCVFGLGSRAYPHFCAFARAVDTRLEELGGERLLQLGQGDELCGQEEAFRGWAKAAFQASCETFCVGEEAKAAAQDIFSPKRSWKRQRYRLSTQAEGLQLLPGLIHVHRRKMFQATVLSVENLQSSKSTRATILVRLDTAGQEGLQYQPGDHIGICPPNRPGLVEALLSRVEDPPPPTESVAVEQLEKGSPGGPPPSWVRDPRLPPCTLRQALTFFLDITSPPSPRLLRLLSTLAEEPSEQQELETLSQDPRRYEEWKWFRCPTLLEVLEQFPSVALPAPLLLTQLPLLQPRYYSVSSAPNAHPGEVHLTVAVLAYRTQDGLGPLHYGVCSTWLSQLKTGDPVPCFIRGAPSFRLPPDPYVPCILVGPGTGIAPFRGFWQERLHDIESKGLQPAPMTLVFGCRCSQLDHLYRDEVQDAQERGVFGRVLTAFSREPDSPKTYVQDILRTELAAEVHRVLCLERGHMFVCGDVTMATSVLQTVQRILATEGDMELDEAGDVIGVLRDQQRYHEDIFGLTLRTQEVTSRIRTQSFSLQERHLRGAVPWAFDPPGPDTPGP
Test: pull-down; eNOS affinity precipitated from BAEC lysate on 2',5'-ADP Sepharose beads (4 °C, 2 h; washed with PBS with 500 mM NaCl), bound proteins blotted for OGT and OGA; cells in control (5.5 mM) or low (1 mM) glucose for 6 h, also with AMPKα1 siRNA or AICAR

binding: binds
Substance: O-GlcNAc transferase (bovine (endogenous in BAECs)) (enzyme)
